# Library compounds against nucleic acid targets

Source: the ROBIN nucleic acid binder screens (doi:10.1002/anie.202211358).

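The test is a small-molecule microarray: each compound is printed twice on a reactive slide, and binding shows as fluorescence of the labelled oligonucleotide after washing. For the PreQ1, TPP and SAM-II riboswitches the laboratory earlier reported (doi:10.1038/s41467-019-09493-3) 1 µM RNA, 2 h, and a rule that included a mean Z-score above 3 (spot signal-to-noise against the whole library), a score well above that on a control array, and duplicate spots agreeing (coefficient of variation under 100). The data file gives only the calls; its cut-offs may differ, and compounds hitting several targets are kept. The calls come from the array alone, and fixing a compound to the slide can hide its binding.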 Key: hit = hit, no hit = tested without a hit. The compounds are a random part of those screened. A dash means that no call is listed here.

Targets, with sequences 5′ to 3′:
T1: SAM-II riboswitch RNA pseudoknot, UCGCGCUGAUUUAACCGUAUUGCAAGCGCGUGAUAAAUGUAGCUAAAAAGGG. About 21,000 compounds screened, about 200 hits.
T2: TPP riboswitch RNA three-way junction, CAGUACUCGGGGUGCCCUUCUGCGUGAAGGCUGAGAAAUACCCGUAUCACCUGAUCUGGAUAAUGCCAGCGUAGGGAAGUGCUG. About 24,000 compounds screened, about 160 hits.
T3: PreQ1 riboswitch RNA pseudoknot, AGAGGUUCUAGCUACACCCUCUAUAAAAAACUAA. From B. subtilis. About 24,000 compounds screened, about 170 hits.

Compound,T1,T2,T3
Cc1n[nH]c(CN2CCCC(CO)(CC3CC3)C2)n1 (stereo not shown),no hit,no hit,no hit
Cc1n[nH]c(C)c1CCN,no hit,no hit,no hit
Nc1ccnc(N2CCc3onc(-c4ccccc4)c3C2)n1,no hit,no hit,no hit
CC[n+]1c(C)n(-c2ccccc2)c2ccc(N)cc21,no hit,no hit,no hit
O=C(NC1CCNCC1)c1[nH]ncc1NC(=O)c1c(Cl)cccc1Cl,no hit,no hit,no hit
O=C(Cc1nc(-c2ccncc2)n[nH]1)N1CCCC2(CCNC2)C1 (stereo not shown),no hit,no hit,no hit
COc1cc(CNCCc2ccc(F)cc2)cc2c1OCO2,no hit,no hit,no hit
CCc1nc(N2CCCC(CO)(CCOC)C2)ncc1C (stereo not shown),no hit,no hit,no hit
Nc1c(-c2nc(-c3ccc4c(c3)OCO4)no2)nnn1-c1ccc(Br)cc1,-,no hit,no hit
Cc1cc(NC(C)C)n2nc(-c3ccccc3C)nc2n1,-,no hit,no hit
CC(C)N(C(=O)c1ccccc1-c1cccc2c(N)ccnc12)C(C)C,no hit,no hit,no hit
CC(O)C(=O)N1CCC(n2nccc2NC(=O)CCOc2ccccc2)CC1 (stereo not shown),no hit,no hit,no hit
COc1ccc(-c2noc(-c3cccnc3NC(C)c3ccc(Cl)cc3)n2)cc1 (stereo not shown),-,no hit,no hit
O=C([C@@H]1C[C@@H](O)CN1)N1CCC(c2nccn2CC2CC2)CC1,no hit,no hit,no hit
FC(F)(F)c1nc2nc(Cl)c(Cl)nc2n1CCCN1CCOCC1,no hit,no hit,no hit
CCN(CC1CCOCC1)C(=O)c1ccc(CC2CCCNC2)cc1 (stereo not shown),no hit,no hit,no hit
CCCC1(CO)CCCN(CCC(=O)N2CCCC2)C1 (stereo not shown),no hit,no hit,no hit
O=C(c1cccc(OC(F)F)c1)N1CC[C@H](N2CCOCC2)[C@H](CCCO)C1,no hit,no hit,no hit
CC1CCc2c(sc3ncnc(NCCCN4CCOCC4)c23)C1 (stereo not shown),no hit,no hit,no hit
O=C1COc2c1ccc(O)c2O,no hit,no hit,no hit
N#CC(=Cc1ccc(O)c(O)c1)C(=O)NCc1ccccc1,no hit,no hit,no hit
OCc1nc2ccccc2n1Cc1c(Cl)cccc1Cl,no hit,no hit,no hit
CCCCC(=O)Nc1ccc(C(=O)NC2(CO)CCCC2)cc1,no hit,no hit,no hit
Cc1c2cc(O)c(=O)cc-2oc2cc(O)c(O)cc12,no hit,no hit,no hit
Cc1ccc(-c2cccc(C(=O)N(C)[C@@H]3CS(=O)(=O)C[C@H]3O)c2)o1,no hit,no hit,no hit
Cc1cc(F)ccc1Nc1nc2ccc(Cl)cc2n2cnnc12,-,no hit,no hit
CC(c1nnc(N)s1)n1cc(-c2ccc(-c3ccccc3C#N)o2)nn1 (stereo not shown),no hit,no hit,no hit
CCNC(=O)C1CCN(c2cc(N)nc(SCc3ccc(C)cc3)n2)C1 (stereo not shown),no hit,no hit,no hit
COc1ccc(C2c3c(-c4cc(C)ccc4O)n[nH]c3C(=O)N2CCO)cc1 (stereo not shown),-,no hit,no hit
O=C(c1cnc(-c2cccnc2)nc1)N1CCOCC(CO)C1 (stereo not shown),no hit,no hit,no hit
COc1ccc(CNc2nc3ccc(C)cc3cc2-c2noc(C(C)C)n2)cc1,-,no hit,no hit
COc1ccc(C)cc1-n1nnc(-c2nc(-c3ccccc3)no2)c1N,-,no hit,no hit
CCCCC1C=CCN1Cc1ccc(CO)o1 (stereo not shown),no hit,no hit,no hit
O=C(Cn1nccn1)N1C[C@H](CO)C[C@H](CN2CCOCC2)C1,no hit,no hit,no hit
CC1(C)O[C@@H]2C[C@H]3[C@@H]4CCC5=CC(=O)C=C[C@]5(C)[C@@]4(F)[C@@H](O)C[C@]3(C)[C@]2(C(=O)CO)O1,no hit,no hit,no hit
Cc1ncsc1-c1cc(-c2cccn2-c2ccncc2)c(C#N)c(N)n1,no hit,no hit,no hit
CO[C@H]1CN(C(=O)c2cc(-c3c(C)nn(C)c3C)nn2C)CC[C@H]1N,no hit,no hit,no hit
Cn1cc(N)cn1,no hit,no hit,no hit
CC1OC(Oc2c(-c3cc(O)c(O)c(O)c3)oc3cc(O)cc(O)c3c2=O)C(O)C(O)C1O (stereo not shown),no hit,no hit,no hit